# Source: patent publication US20240124424A1, “SOLID FORMS OF (5S)-CYCLOPROPYL-5-[3-[(3S)-4-(3,5-DIFLUOROPHENYL)-3-METHYL-PIPERAZIN-1-YL]-3-OXO-PROPYL]IMIDAZOLIDINE-2,4-DIONE” (Galapagos NV, priority 2020, published 2024)
# For at least one compound, name, drawing or mass did not settle the structure.
# Assays:
# Type in all cases: in vivo
# mdx mice = experiment: Duchenne muscular dystrophy mdx model; details: 120 mg/kg p.o. b.i.d.
# Source text: The male mdx mice is the most used animal model for pre-clinical Duchenne muscular dystrophy (DMD) research.
# Five-week-old mdx mice (Animal Resource Centre; Perth, WA, Australia) were allowed to acclimatise for 1 week to their surroundings, before being randomly allocated to one of four treatment groups or an untreated control group (15 animals per group) as described in the table below. At the start of the study, these groups were matched for mouse body weight.
# The untreated control mdx mice were restrained throughout the study. Following 1-week acclimatisation, this group of mice also have baseline measurements of grip strength and body composition taken, which were repeated at ˜10 weeks and ˜15 weeks of age. Furthermore, these mice were weighed on a regular basis and their urine was collected at ˜6, ˜10 and ˜15 weeks of age. […]
# Bone structure was evaluated via μCT analysis of cortical and trabecular bone on the femur.
# BALB/c (H2^d) mice = experiment: Graft versus host (cGvHD) lung model; details: skin, 120 mg/kg p.o. b.i.d. in Tween 80/methyl cellulose 0.5% (2/98)
# Source text: In this cGvHD model, fibrosis was induced in BALB/c (H2^d) mice by allogeneic transplantation of bone marrow cells and splenocytes from B10.D2 (H2^d) donor mice (minor HLA mismatch). The recipient mice develop inflammation-driven dermal and pulmonary fibrosis resembling patients with rapidly progressive diffuse cutaneous systemic sclerosis (Zen et al., 2012).
# The treatment was provided only after the onset of first clinical symptoms of sclerodermatous cGvHD.
# The following groups with each eight mice were used in this study • Syngeneically transplanted, placebo-treated control group: Syngeneic bone marrow and splenocyte transplantation (BALB/c (H2^d)→BALB/c (H2^d)). Application of methyl cellulose 0.5% from day 21 to day 56 post transplantation. • Vehicle-treated fibrosis group: Allogeneic bone marrow and splenocyte transplantation (B10.D2 (H2^d)→BALB/c (H2^d)). […]
# The anti-fibrotic effects on skin were analysed by determination of dermal thickness, quantification of lesional collagen and staining for myofibroblasts.
# In case of positive effects on skin fibrosis, effects on pulmonary fibrosis were analysed by Ashcroft scoring, hydroxyproline content, and quantification of the collagen covered area using Sirius red staining
# Based on individual animal raw data, the means for each group were determined and percent change from disease controls was calculated. […]
# Balb/c mice = experiment: Protein overload nephrectomy model; details: day 14, 240 mg/kg/day b.i.d., p<0.05
# Experimental: This animal model allows to assess the efficacy of the compound of the invention in renal disease, including renal fibrosis.
# This study was undertaken in Balb/c mice (Charles River).
# Mice underwent a left unilateral nephrectomy via a short flank incision under anaesthesia.
# Sham control mice received an incision only . The mice were allowed to recover from surgery for 7 days.
# Drug treatment commenced one day prior to initiation of protein overload.
# Each mouse received either Cpd 1 240 mg/kg/day b.i.d. (dosed daily at 8h00 and 15h30), or 10 mg/kg/day Lisinopril (one dose Lisinopril plus one dose of vehicle), or vehicle alone (0.5% methyl cellulose containing 2% Tween 80—two doses) by oral gavage.
# Sham mice received vehicle alone. […]
# All data were expressed as means±SEM. Results were analysed using GraphPad Prism 8. […] Relative mRNA expression levels were calculated according to the Livak equation as 2-ΔCt. […]
# The following endpoints were measured: • Urine Protein concentration mg/mL, • Urine protein/mg creatinine (mg/mg) • serum protein concentration (mg/mL), • urine creatinine concentration (mg/dL)(mg/mL) • Serum creatinine concentration (mg/dL) • Serum urea concentration (mg/dL) • Versikine, NITEGE, ARGS dot blots • Immunohistochemistry: ADAMTS5, Collagen I, Collagen IV, fibronectin, CD45, complement C3, F4/80
compound,measurement,setting,value
"C[C@H]1CN(C(=O)CC[C@@]2(C3CC3)NC(=O)NC2=O)CCN1c1cc(F)cc(F)c1 [Cpd 1, (5S)-cyclopropyl-5-[3-[(3S)-4-(3,5-difluorophenyl)-3-methyl-piperazin-1-yl]-3-oxo-propyl]imidazolidine-2,4-dione]",improvement in muscle grip strenght compared to the control groups,mdx mice,statistically significant improvement
same,reduction of dermal thickness,BALB/c (H2^d) mice,statistically non-significant reduction
same,improvement in proteinuria compared to the vehicle group,Balb/c mice,statistically significant improvement
